Measurements reported in PubChem BioAssay AID1508597 (Cure First, 2020)
Screen: 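Knock-downs altering ovarian cancer cell survival with or without PARP inhibitor rucaparib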 (primary screen). System: human ovarian carcinoma lines grown from tumours: OCI-P5x (papillary serous) and OCI-C5x (clear cell). Reagent: siRNA pool against human genes, 1.25 pmol siRNA per well. Duration: 72 h or 96 h, depending on the cell culture. Treatment: rucaparib 20 µM (about IC30) or vehicle, present until read-out. Rucaparib or vehicle: Rucaparib. Cell line: OCI-P5x (serous). Read-out: 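ATP luminescence measured at 72 or 96 h according to the culture, then normalised and expressed as percent viability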. Scale: viability, normalised: higher = more viable cells remaining. Active means: 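Active when normalised viability falls below 80 percent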. Meaning of the calls: active = viability under 80%; inactive = viability 80% or more.
This is an unselected part of the about 2,100 reagents, under one of the conditions tested. 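Calls flag viability under 80% in either arm, not effects specific to rucaparib; the reference for percent is not stated.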 Unmarked entries are inactive. Some reagents were tested in more than one well and are listed for each. Not stated in the record: the 100% reference.

With KMT5C (lysine methyltransferase 5C) [SID405526514], technical replicate 1 the deposit lists viability, normalised (%) = 58 (active). KMT5C (lysine methyltransferase 5C) [SID405526514], technical replicate 2 showed viability, normalised (%) = 57 (active). KMT5C (lysine methyltransferase 5C) [SID405526514], technical replicate 3 scored viability, normalised (%) = 69.4 (active). With PARP2 (poly(ADP-ribose) polymerase 2) [SID405527111], technical replicate 1, the entry reads viability, normalised (%) = 30.7 (active). PARP2 (poly(ADP-ribose) polymerase 2) [SID405527111], technical replicate 1 showed viability, normalised (%) = 79 (active). For PARP2 (poly(ADP-ribose) polymerase 2) [SID405527111], technical replicate 2 the deposit lists viability, normalised (%) = 64.8 (active).

PARP2 (poly(ADP-ribose) polymerase 2) [SID405527111], technical replicate 2 scored viability, normalised (%) = 43.5 (active). With PARP2 (poly(ADP-ribose) polymerase 2) [SID405527111], technical replicate 3, the entry reads viability, normalised (%) = 67.6 (active). PARP2 (poly(ADP-ribose) polymerase 2) [SID405527111], technical replicate 3 showed viability, normalised (%) = 53.9 (active). POU4F1 (POU class 4 homeobox 1) [SID405527174], technical replicate 1 gave viability, normalised (%) = 50 (active). For POU4F1 (POU class 4 homeobox 1) [SID405527174], technical replicate 2 the deposit lists viability, normalised (%) = 48.1 (active). With POU4F1 (POU class 4 homeobox 1) [SID405527174], technical replicate 3 the deposit lists viability, normalised (%) = 43.1 (active).

ERN1 (endoplasmic reticulum to nucleus signaling 1) [SID405527556], technical replicate 1 showed viability, normalised (%) = 65.4 (active). ERN1 (endoplasmic reticulum to nucleus signaling 1) [SID405527556], technical replicate 2 showed viability, normalised (%) = 63.4 (active). With ERN1 (endoplasmic reticulum to nucleus signaling 1) [SID405527556], technical replicate 3 the deposit lists viability, normalised (%) = 67 (active). POLE (DNA polymerase epsilon, catalytic subunit) [SID405528329], technical replicate 1 showed viability, normalised (%) = 86.8. With POLE (DNA polymerase epsilon, catalytic subunit) [SID405528329], technical replicate 2 the deposit lists viability, normalised (%) = 103. POLE (DNA polymerase epsilon, catalytic subunit) [SID405528329], technical replicate 3 showed viability, normalised (%) = 81.1.

TAF12 (TATA-box binding protein associated factor 12) [SID405526523], technical replicate 1 scored viability, normalised (%) = 51.9 (active). For TAF12 (TATA-box binding protein associated factor 12) [SID405526523], technical replicate 2 the deposit lists viability, normalised (%) = 43.3 (active). TAF12 (TATA-box binding protein associated factor 12) [SID405526523], technical replicate 3 scored viability, normalised (%) = 40.6 (active). CBX2 (chromobox 2) [SID405528070], technical replicate 1 gave viability, normalised (%) = 63.6 (active). For CBX2 (chromobox 2) [SID405528070], technical replicate 2 the deposit lists viability, normalised (%) = 91.2. CBX2 (chromobox 2) [SID405528070], technical replicate 3 showed viability, normalised (%) = 79.2 (active).

RBL2 (RB transcriptional corepressor like 2) [SID405527236], technical replicate 1 scored viability, normalised (%) = 53.6 (active). RBL2 (RB transcriptional corepressor like 2) [SID405527236], technical replicate 2 showed viability, normalised (%) = 71 (active). RBL2 (RB transcriptional corepressor like 2) [SID405527236], technical replicate 3 showed viability, normalised (%) = 62.1 (active).

3 entries already listed, sorted by “viability, normalised (%)”, highest first:
CBX2 (chromobox 2) [SID405528070], technical replicate 2 → viability, normalised (%) = 91.2
CBX2 (chromobox 2) [SID405528070], technical replicate 1 → viability, normalised (%) = 63.6 (active)
TAF12 (TATA-box binding protein associated factor 12) [SID405526523], technical replicate 3 → viability, normalised (%) = 40.6 (active)

Further reagents:
EYA3 (EYA transcriptional coactivator and phosphatase 3) [SID405526770], technical replicate 1 scored viability, normalised (%) = 48.4 (active). For EYA3 (EYA transcriptional coactivator and phosphatase 3) [SID405526770], technical replicate 2, the values are viability, normalised (%) = 51.5 (active). EYA3 (EYA transcriptional coactivator and phosphatase 3) [SID405526770], technical replicate 3 showed viability, normalised (%) = 51.4 (active). For TFAM (transcription factor A, mitochondrial) [SID405528481], technical replicate 1, the entry reads viability, normalised (%) = 66.7 (active). For TFAM (transcription factor A, mitochondrial) [SID405528481], technical replicate 2 the deposit lists viability, normalised (%) = 77 (active). TFAM (transcription factor A, mitochondrial) [SID405528481], technical replicate 3 gave viability, normalised (%) = 66 (active).

With ACHE (acetylcholinesterase (Yt blood group)) [SID405527942], technical replicate 1, the values are viability, normalised (%) = 65.4 (active). ACHE (acetylcholinesterase (Yt blood group)) [SID405527942], technical replicate 2 gave viability, normalised (%) = 51.9 (active). For ACHE (acetylcholinesterase (Yt blood group)) [SID405527942], technical replicate 3, the values are viability, normalised (%) = 56.9 (active). With CDK7 (cyclin dependent kinase 7) [SID405527590], technical replicate 1 the deposit lists viability, normalised (%) = 127. CDK7 (cyclin dependent kinase 7) [SID405527590], technical replicate 1 showed viability, normalised (%) = 60 (active). For CDK7 (cyclin dependent kinase 7) [SID405527590], technical replicate 2 the deposit lists viability, normalised (%) = 130.

For CDK7 (cyclin dependent kinase 7) [SID405527590], technical replicate 2, the values are viability, normalised (%) = 68.7 (active). CDK7 (cyclin dependent kinase 7) [SID405527590], technical replicate 3 gave viability, normalised (%) = 120. CDK7 (cyclin dependent kinase 7) [SID405527590], technical replicate 3 showed viability, normalised (%) = 53.4 (active).
